Earlier results in patent US6653351B2, “Adjuvant chemotherapy for anaplastic gliomas” (priority 2001, dated 2003).
For at least one compound, name, drawing or mass did not settle the structure.

Test system: MCA sarcoma

SMILES: NCCCC(N)(C(=O)O)C(F)F (stereo not drawn) [DFMO, alpha-difluoromethylomithine]
- effect on tumor growth rate / regression: reduces the growth rate of an MCA sarcoma, but does not produce tumor regression
